This is an account of results in the supplement of paper PMC7666118.

Amino acid sequences for entries named in this document (tags omitted). A change or cut given only in a name is not applied to a line headed by its entry.
UniProt O14933: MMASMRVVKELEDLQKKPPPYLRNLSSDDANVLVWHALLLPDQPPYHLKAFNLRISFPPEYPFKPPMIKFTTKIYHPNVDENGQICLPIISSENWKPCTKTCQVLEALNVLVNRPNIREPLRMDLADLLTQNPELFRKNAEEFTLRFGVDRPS
UniProt P07919: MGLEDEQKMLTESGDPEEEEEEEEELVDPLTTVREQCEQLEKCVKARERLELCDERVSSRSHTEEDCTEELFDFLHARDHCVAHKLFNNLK
UniProt P17480: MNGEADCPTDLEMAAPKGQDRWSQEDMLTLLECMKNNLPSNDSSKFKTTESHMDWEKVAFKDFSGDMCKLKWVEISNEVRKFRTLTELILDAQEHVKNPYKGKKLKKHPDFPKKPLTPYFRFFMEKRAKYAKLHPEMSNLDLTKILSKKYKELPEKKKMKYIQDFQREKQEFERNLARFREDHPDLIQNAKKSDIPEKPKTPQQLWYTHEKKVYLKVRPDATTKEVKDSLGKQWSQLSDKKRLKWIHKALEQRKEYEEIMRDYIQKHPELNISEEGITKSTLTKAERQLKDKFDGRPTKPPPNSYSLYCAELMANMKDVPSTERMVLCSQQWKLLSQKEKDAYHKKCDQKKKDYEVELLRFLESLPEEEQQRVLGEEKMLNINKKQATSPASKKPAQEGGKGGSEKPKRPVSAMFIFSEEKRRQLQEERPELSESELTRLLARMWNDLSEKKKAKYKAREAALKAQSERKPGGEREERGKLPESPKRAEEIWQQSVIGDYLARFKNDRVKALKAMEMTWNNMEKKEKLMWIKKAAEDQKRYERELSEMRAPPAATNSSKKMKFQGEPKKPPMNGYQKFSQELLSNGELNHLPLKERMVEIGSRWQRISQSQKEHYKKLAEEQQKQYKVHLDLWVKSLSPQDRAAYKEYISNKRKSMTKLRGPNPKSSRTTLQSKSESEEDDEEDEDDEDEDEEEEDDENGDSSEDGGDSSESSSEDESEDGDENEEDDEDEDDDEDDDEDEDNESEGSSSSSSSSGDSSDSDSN
UniProt Q9Y5R8, whole entry: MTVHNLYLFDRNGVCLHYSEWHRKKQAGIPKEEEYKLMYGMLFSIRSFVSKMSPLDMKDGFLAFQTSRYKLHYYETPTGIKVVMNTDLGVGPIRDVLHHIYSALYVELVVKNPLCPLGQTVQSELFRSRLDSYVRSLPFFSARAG
UniProt Q969M7: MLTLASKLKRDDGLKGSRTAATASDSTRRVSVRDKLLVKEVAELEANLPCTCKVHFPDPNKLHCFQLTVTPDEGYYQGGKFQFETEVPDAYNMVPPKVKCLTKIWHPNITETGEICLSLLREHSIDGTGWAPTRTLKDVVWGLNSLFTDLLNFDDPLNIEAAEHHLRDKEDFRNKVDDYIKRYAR
UniProt Q9H4I3: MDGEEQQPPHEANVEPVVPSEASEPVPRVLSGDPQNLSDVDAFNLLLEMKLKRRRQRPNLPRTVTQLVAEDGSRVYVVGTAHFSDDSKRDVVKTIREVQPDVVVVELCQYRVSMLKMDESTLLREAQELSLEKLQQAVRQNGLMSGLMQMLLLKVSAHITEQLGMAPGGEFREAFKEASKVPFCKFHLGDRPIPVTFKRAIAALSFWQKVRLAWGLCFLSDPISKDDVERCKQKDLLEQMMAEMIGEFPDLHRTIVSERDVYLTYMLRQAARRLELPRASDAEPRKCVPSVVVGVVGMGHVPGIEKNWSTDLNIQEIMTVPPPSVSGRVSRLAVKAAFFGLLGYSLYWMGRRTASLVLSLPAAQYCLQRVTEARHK
UniProt Q9BZL1: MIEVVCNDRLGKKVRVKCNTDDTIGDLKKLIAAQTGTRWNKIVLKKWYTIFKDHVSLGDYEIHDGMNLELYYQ
UniProt O00762: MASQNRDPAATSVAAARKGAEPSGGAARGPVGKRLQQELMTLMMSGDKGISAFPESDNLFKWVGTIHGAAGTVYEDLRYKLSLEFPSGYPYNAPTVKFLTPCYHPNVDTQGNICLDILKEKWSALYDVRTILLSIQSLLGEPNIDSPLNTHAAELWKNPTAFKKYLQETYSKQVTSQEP
UniProt Q6PGP7, whole entry: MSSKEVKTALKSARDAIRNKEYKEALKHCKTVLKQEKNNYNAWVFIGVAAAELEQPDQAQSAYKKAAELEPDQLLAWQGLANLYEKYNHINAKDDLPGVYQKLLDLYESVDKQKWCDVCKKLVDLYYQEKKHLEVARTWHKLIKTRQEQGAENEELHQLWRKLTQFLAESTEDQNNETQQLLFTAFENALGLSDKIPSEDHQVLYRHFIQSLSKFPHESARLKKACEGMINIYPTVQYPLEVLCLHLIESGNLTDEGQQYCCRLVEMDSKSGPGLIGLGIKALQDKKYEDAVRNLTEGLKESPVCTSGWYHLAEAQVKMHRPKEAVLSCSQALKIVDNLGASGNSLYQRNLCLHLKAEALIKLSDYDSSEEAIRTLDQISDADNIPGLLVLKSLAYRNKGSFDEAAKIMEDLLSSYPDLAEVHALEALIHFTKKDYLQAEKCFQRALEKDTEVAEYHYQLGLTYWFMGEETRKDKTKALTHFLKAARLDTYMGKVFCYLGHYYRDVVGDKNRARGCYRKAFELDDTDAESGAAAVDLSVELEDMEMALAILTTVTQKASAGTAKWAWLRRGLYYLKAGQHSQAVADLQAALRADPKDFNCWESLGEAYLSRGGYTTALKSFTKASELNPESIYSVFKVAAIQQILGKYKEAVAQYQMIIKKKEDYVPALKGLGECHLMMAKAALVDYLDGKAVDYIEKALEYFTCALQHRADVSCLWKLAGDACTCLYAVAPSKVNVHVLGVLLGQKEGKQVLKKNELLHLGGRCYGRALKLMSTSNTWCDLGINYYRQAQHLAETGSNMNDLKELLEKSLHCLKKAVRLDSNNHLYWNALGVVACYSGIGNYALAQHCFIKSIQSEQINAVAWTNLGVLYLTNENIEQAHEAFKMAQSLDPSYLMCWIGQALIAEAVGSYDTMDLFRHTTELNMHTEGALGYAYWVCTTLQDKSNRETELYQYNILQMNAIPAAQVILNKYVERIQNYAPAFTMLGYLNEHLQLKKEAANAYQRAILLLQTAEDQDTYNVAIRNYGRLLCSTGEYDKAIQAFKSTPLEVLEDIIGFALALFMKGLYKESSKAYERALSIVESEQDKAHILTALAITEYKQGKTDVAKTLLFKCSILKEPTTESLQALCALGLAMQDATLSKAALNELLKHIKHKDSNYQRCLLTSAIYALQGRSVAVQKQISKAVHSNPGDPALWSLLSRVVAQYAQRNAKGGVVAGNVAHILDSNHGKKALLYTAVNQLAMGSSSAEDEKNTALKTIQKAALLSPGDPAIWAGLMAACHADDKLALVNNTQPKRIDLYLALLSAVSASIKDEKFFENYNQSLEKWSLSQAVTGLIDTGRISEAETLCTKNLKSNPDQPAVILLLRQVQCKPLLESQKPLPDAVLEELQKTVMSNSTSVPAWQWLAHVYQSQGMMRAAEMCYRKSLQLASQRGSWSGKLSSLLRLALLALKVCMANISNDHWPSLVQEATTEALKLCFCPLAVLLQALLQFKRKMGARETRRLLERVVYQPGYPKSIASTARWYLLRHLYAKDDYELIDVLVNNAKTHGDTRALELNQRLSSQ
UniProt P07437, whole entry: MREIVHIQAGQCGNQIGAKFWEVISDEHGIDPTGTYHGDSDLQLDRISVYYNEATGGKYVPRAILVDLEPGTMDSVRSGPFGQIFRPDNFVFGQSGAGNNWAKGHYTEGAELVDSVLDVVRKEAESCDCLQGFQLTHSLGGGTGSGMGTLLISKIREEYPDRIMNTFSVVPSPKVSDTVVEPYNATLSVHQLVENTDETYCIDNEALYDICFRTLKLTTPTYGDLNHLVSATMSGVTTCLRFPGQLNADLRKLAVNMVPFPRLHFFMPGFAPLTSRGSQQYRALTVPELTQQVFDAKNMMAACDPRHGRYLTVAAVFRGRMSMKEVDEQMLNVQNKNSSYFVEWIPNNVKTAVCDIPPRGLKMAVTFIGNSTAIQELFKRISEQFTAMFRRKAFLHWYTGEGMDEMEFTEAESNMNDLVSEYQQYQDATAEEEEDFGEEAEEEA
UniProt Q8NG68: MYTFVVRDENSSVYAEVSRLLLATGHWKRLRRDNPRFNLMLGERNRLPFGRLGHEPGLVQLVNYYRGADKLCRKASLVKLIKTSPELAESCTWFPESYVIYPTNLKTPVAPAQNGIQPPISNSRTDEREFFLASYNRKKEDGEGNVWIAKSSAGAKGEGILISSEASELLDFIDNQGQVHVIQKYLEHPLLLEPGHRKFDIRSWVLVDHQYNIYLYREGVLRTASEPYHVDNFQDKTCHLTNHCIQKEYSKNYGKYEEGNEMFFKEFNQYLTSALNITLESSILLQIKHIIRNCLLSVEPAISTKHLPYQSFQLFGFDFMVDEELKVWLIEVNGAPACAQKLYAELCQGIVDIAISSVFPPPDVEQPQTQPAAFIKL
UniProt Q8N584: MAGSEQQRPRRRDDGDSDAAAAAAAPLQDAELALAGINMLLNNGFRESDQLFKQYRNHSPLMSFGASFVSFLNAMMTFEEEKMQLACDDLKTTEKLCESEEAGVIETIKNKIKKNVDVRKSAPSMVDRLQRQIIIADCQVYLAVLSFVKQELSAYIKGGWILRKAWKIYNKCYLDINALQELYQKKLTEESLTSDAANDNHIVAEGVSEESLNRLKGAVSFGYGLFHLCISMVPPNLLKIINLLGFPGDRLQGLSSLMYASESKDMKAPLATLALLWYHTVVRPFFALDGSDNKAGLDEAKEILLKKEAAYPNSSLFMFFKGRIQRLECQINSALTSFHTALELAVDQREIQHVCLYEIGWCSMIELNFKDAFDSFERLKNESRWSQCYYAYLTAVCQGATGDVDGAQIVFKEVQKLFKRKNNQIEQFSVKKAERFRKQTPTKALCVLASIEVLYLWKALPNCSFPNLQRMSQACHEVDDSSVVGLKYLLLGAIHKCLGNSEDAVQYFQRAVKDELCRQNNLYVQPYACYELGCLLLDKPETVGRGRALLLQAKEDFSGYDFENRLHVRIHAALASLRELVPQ
UniProt Q15642: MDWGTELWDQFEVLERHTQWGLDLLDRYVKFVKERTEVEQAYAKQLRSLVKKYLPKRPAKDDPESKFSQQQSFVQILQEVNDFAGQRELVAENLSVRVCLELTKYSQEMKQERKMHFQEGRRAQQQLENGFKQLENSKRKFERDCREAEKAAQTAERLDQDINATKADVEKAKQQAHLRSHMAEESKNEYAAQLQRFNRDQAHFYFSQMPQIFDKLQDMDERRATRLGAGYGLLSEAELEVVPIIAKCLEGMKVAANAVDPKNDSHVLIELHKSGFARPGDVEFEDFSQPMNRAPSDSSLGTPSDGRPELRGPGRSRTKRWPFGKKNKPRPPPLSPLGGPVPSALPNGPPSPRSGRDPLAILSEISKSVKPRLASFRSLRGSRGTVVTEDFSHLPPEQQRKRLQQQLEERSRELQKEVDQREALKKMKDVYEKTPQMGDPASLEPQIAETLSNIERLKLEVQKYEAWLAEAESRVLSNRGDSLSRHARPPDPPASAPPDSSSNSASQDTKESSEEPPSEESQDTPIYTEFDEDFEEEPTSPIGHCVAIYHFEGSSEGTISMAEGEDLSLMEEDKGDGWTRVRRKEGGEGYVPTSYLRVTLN
UniProt Q9NZ43: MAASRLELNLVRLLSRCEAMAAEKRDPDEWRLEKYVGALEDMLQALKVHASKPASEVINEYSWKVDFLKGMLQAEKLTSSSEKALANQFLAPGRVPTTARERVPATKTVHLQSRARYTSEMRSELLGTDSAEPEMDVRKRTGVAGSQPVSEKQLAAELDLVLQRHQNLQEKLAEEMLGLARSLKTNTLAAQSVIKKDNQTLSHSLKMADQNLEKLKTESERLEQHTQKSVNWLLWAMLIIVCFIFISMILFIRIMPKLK
UniProt Q8TBC4: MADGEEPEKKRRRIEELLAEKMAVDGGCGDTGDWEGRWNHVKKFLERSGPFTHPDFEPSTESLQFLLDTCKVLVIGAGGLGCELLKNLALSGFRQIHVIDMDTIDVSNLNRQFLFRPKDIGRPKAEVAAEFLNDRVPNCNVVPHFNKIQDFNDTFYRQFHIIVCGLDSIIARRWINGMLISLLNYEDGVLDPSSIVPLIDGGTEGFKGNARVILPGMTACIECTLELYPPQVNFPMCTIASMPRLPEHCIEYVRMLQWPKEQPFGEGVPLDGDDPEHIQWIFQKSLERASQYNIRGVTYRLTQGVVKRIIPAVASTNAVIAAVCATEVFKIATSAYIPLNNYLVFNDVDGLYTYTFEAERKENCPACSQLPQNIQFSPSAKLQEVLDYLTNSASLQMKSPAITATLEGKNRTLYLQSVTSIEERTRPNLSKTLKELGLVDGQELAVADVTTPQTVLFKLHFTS
UniProt P51965: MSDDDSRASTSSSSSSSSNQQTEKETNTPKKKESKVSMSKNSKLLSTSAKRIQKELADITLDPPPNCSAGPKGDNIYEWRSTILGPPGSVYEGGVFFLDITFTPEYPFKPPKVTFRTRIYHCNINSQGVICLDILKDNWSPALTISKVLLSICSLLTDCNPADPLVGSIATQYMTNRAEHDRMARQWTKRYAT

This is one part of the list.

Compound in this experiment: COc1ccc(Cn2ccc3ccc(C(=O)NO)cc32)cc1
Briefly: dose-dependent thermal stabilisation call (2D-TPP, DLPTP, 10% FDR) (binary (1 = stabilised)); higher = stabilised by the compound. As to conditions: system: HL-60 intact cells; concentration range 0.04-10 µM.
Turning to UBAP2L (UniProt Q14157), the “dose-dependent thermal stabilisation call” value is inactive: 0.
Turning to URG4 (UniProt Q8TCY9), the “dose-dependent thermal stabilisation call” value was inactive: 0.
To TRIP13 (UniProt Q15645) belongs inactive: 0; to UBE2L6 (UniProt O14933), inactive: 0; to UQCRH (UniProt P07919), inactive: 0.
The figure for UBTF (UniProt P17480) is inactive: 0.
Turning to U2AF2 (UniProt P26368), the “dose-dependent thermal stabilisation call” value is inactive: 0.
As to UBE2M (UniProt P61081), the “dose-dependent thermal stabilisation call” value was inactive: 0.
TRAPPC1 (UniProt Q9Y5R8): the “dose-dependent thermal stabilisation call” value was inactive: 0.
The figure for UBE2F (UniProt Q969M7) is inactive: 0; for TXNRD3 (UniProt Q86VQ6) it is inactive: 0; for USP28 (UniProt Q96RU2) it is inactive: 0.
To TRABD (UniProt Q9H4I3) belongs inactive: 0; to UBL5 (UniProt Q9BZL1), inactive: 0; to UBAP1 (UniProt Q9NZ09), inactive: 0.
In the case of UBE2C (UniProt O00762), the “dose-dependent thermal stabilisation call” value is inactive: 0.
The figure for TTC37 (UniProt Q6PGP7) is inactive: 0; for USP25 (UniProt Q9UHP3) it is inactive: 0.
As to TWSG1 (UniProt Q9GZX9), the “dose-dependent thermal stabilisation call” value was inactive: 0.
As for TUBB (UniProt P07437), the “dose-dependent thermal stabilisation call” value is active: 1.
TTL (UniProt Q8NG68): the “dose-dependent thermal stabilisation call” value is inactive: 0.
With TTC39C (UniProt Q8N584), the “dose-dependent thermal stabilisation call” value is inactive: 0.
As to TRIP10 (UniProt Q15642), the “dose-dependent thermal stabilisation call” value is inactive: 0.
The figure for USP22 (UniProt Q9UPT9) is inactive: 0.
To USE1 (UniProt Q9NZ43) belongs inactive: 0.
The figure for UBA3 (UniProt Q8TBC4) is inactive: 0; for UBE2E1 (UniProt P51965) it is inactive: 0.
